61 molecules from PubChem BioAssay AID2685 (National Center for Advancing Translational Sciences (NCATS), 2010) can be followed below.

The assay in a line: qHTS Assay for Lipid Storage Modulators in Drosophila S3 Cells.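 As to cell number change: cells counted by Cell Tracker Red CMTPX staining in the red channel.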 The conditions noted are these: BODIPY lipid droplet fluorescence, 18-24 h; for cell number change: measured here: cell count max response, cells fed with added oleic acid. The gist of the method:
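Drosophila S3 cells loaded with oleic acid (400 uM, as added) and compounds at several concentrations; lipid droplets imaged by 488-nm laser-scanning cytometry, 500–530 nm intensity and object ratio to cell channel. Percent activity normalized to 20 uM Triacsin C.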

[1] abbreviates: measured here: lipid fluorescence (Fed channel) AC50, cells fed with added oleic acid.
Setting [2] is: measured here: cell number channel AC50, cells fed with added oleic acid.

This is one part of the list. The main result of the screen is listed elsewhere. These columns were measured beside it and carry no call. Most of these compounds were active or inconclusive in the main read-out, so they are no random draw. Potencies come from curve fits of mixed quality, noted in brackets.

Turning to `O=C(Nc1cccc(S(=O)(=O)N2CCOCC2)c1)[C@@H]1CCCN1S(=O)(=O)c1ccc(Cl)cc1`, the cell number change came to 27.9%.
As a reminder, the AC50 is the concentration at which the activity in the assay is half-maximal. A high value points to activity only at high concentration. On to `OC(CCc1ccncc1)c1ccccc1` (stereo unspecified), for which the cell number change is 21.9%. The AC50 under setting [1] is 4.61 µM [rising, partial curve, poor fit].
`CC(n1cnnn1)C12CC3CC(CC(C3)C1)C2` (stereo unspecified): the cell number change is -17.1%. Under setting [1], the AC50 is 0.651 µM [falling, single point].
Consider `Cc1ccccc1NC(=O)c1ccc(C)c(S(=O)(=O)Nc2cccnc2)c1`, for which the cell number change was -17.6%. Moreover, the concentration at half-maximal activity (AC50) under setting [1] was 0.116 µM [falling, full curve, poor fit].
Regarding `COc1ccc(C)cc1NC(=O)NC(C)c1ccc2c(c1)OCO2` (stereo unspecified), under setting [1], the AC50 was 6.51 µM [falling, partial curve, poor fit].
Take `Cc1ccc(NC(=O)Cn2c(=O)oc3cc(S(=O)(=O)N4CCC(C)CC4)ccc32)cc1C`: the cell number change is 31.2%. Further, the AC50 under setting [2] was 20.6 µM [rising, single point].
`C[C@@H](NC(=O)[C@@H]1Cc2ccccc2CN1)C(=O)Nc1ccc2c(c1)OCCO2`: the cell number change was -65.2%. Under setting [1], the concentration at half-maximal activity (AC50) was 0.58 µM [rising, single point].
On to `Cc1ccc(NC(=O)NC(=O)CN2CCC(C(N)=O)CC2)c(C)c1`, for which the cell number change is -30.7%. Also, the half-maximal activity concentration (AC50) under setting [2] was 0.164 µM [falling, full curve, poor fit].
With `NNC(=O)CCc1nc2ccccc2[nH]1`, under setting [1], the AC50 is 6.51 µM [rising, partial curve, poor fit].
Turning to `Cc1ccc(C(=O)Oc2cccnc2)cc1[N+](=O)[O-]`, the cell number change came out at 24.7%. In addition, the concentration at half-maximal activity (AC50) under setting [1] was 20.6 µM [falling, partial curve, poor fit].
Turning to `O=C(CSc1ncn[nH]1)N1N=C(c2ccc(Cl)cc2)CC1c1ccco1` (stereo unspecified), the cell number change came out at 18.7%.
Turning to `C=CCN(Cc1nc(-c2ccccc2)no1)C(=O)c1ccco1`, the cell number change was 7.83%.
With `C[C@H](NC(=O)c1ccc(Cl)cc1)C(=O)NCCc1ccc(S(N)(=O)=O)cc1`, the cell number change was 26.8%. For the same molecule, under setting [1], the half-maximal activity concentration (AC50) is 32.6 µM [rising, partial curve, poor fit].
Regarding `CCOC(=O)CN1C(=O)NC(C)(c2ccc(OC(F)F)cc2)C1=O` (stereo unspecified), the cell number change was -25.4%. Further, the half-maximal activity concentration (AC50) under setting [1] was 6.51 µM [falling, single point].
Turning to `Cc1ccc(NS(=O)(=O)c2c(C)[nH]c(=O)[nH]c2=O)c(C)c1`, the cell number change is -7.8%. Further, the AC50 under setting [1] is 6.51 µM [falling, single point].
For the molecule `COc1ccc(C(=O)NC(=S)NNC(=O)c2cnccn2)cc1OC`, the cell number change was -24.5%. The concentration at half-maximal activity (AC50) under setting [1] is 1.64 µM [falling, partial curve, poor fit].
On to `Cc1ccc(C2=Nc3ccccc3SC(c3cccc([N+](=O)[O-])c3)C2)cc1` (stereo unspecified), for which the cell number change is -35.5%. The AC50 under setting [2] is 29.1 µM [falling, single point]. Also, the half-maximal activity concentration (AC50) under setting [1] was 2.06 µM [rising, partial curve].
Take `O=C(OCC(=O)N1CCN(c2ccccc2)CC1)c1cnc(Cl)c(Cl)c1`: the AC50 under setting [2] was 0.206 µM [rising, full curve].
In the case of `O=C(Cc1ccccc1)Nn1c(O)c(/C=C2\C=Nc3ccccc32)sc1=S`, the cell number change was -60.2%. Further, the AC50 under setting [2] is 20.6 µM [falling, partial curve]. For the same molecule, the AC50 under setting [1] is 18.4 µM [falling, single point].
Turning to `CN(C(=O)c1ccc(NC(=O)Cc2cccc(NC(=O)C3CCCN(C(=O)C4CCCCC4)C3)c2)cc1)C1CCCC1` (stereo unspecified), the cell number change is -5.1%.
As to `CC12CN3CC(C)(CN(C1)C3c1ccc(Br)cc1O)C2` (stereo unspecified), the cell number change turned out to be 12.8%.
Turning to `CC(C)(C)c1cc(C(=O)NNc2cc(C(F)(F)F)ccc2Cl)n(Cc2ccccc2)n1`, the AC50 under setting [1] was 16.4 µM [falling, single point].
As to `Cc1nc(SCC(=O)NC(=O)NCc2ccccc2)nc(C)c1C`, the cell number change is 47.3%. Moreover, under setting [2], the AC50 was 2.59 µM [rising, full curve]. Also, under setting [1], the AC50 was 5.8 µM [rising, partial curve].
`CCOC(=O)c1c(C)n(C)c2cc(Br)c(C)cc12`: the cell number change stood at 48.4%. In addition, the AC50 under setting [2] is 18.4 µM [rising, single point]. For the same molecule, the AC50 under setting [1] is 6.51 µM [rising, single point].
In the case of `CC(C)(C)C(=O)C(Cl)C(=O)Nc1ccccc1` (stereo unspecified), the cell number change is -14.4%. Moreover, under setting [1], the concentration at half-maximal activity (AC50) is 32.6 µM [falling, single point].
`COCCCn1c(=O)c2ccccc2n(Cc2ccc(C)cc2)c1=O`: the cell number change is -9.11%. Moreover, the AC50 under setting [1] is 0.206 µM [rising, full curve, poor fit].
As to `N=c1sccn1CC(=O)Nc1cccc(S(=O)(=O)N2CCCCCC2)c1`, the cell number change worked out at 23.1%. For the same molecule, under setting [2], the AC50 was 0.92 µM [falling, full curve]. The half-maximal activity concentration (AC50) under setting [1] is 1.84 µM [falling, partial curve].
For `CCCCC#Cc1ccc2c(c1)COc1c3ccccc3nn1-2`, the cell number change amounted to 7.81%. Moreover, the AC50 under setting [1] is 6.51 µM [rising, partial curve].
In the case of `O=C(Nc1c(F)cc(F)cc1Br)c1cc(-c2ccco2)on1`, the cell number change stood at 4.31%.
Turning to `Cc1ccc(N(C(=O)C2CCCO2)C2C=CS(=O)(=O)C2)cc1Cl` (stereo unspecified), the cell number change was -10.6%. The AC50 under setting [1] was 1.03 µM [falling, full curve].
Regarding `CCNC(=S)NS(=O)(=O)c1ccc(F)cc1`, the cell number change was 2.02%.
On to `COc1ccc(C2(O)CCN(C(=O)c3ccc4c(c3)OCO4)CC2)cc1`, for which the cell number change came out at 30.5%. For the same molecule, under setting [2], the concentration at half-maximal activity (AC50) was 9.2 µM [rising, partial curve].
For the molecule `C/C(=N\NC1=N[C@H]2CS(=O)(=O)C[C@H]2S1)c1ccccc1`, the cell number change was 12.9%. For the same molecule, the AC50 under setting [1] was 1.03 µM [falling, full curve, poor fit].
With `COc1cc(NC(=O)c2ccccc2)c(OC)cc1NC(=O)CN1C(=O)NC2(CCCCC2C)C1=O` (stereo unspecified), the cell number change was determined as 1.1%.
As for `O=C(CN(C(=O)c1csnn1)c1ccccc1Cl)NC1CCCCC1`, the cell number change amounted to 13.7%.
The same measure, in the same setting: the figure for `CC(/C=N/NC(=O)c1ccc(Cn2cc([N+](=O)[O-])cn2)o1)=C\c1ccccc1` is 1.74%.
With `CC(=O)c1ccc(Sc2ccccc2N)c([N+](=O)[O-])c1`, the cell number change amounted to 19.7%. In addition, under setting [1], the concentration at half-maximal activity (AC50) was 1.64 µM [rising, full curve, poor fit].
Consider `CC(C)n1cc(CN2CCC(C(=O)Nc3ccc(Oc4ccccc4F)cc3)CC2)cn1`, for which the cell number change was -20.2%. For the same molecule, under setting [1], the half-maximal activity concentration (AC50) is 0.58 µM [rising, single point].
`CCCC(=O)c1cc(-c2nc3ccccc3n2C)n(C)c1`: the cell number change was found to be 141%. For the same molecule, the concentration at half-maximal activity (AC50) under setting [1] is 14.6 µM [rising, partial curve].
As to `O=C(NC(Cc1ccc2c(c1)OCO2)C(=O)N1CCCC1C(=O)O)c1ccccc1` (stereo unspecified), the cell number change is -3.14%. Also, the AC50 under setting [1] was 0.116 µM [falling, full curve, poor fit].
On to `COc1cc(NC(=O)c2cc3c(Cl)nc4ccccc4c3s2)cc(OC)c1OC`, for which the cell number change is -31.8%. Moreover, the half-maximal activity concentration (AC50) under setting [2] is 6.51 µM [rising, partial curve]. The AC50 under setting [1] was 6.51 µM [rising, partial curve].
Regarding `CCN(CC)C(=O)Cn1c(C)c(/C=C/c2cc[n+](C)cc2)c2ccccc21`, the cell number change was found to be 30.1%.
Take `Cc1cnc(C(=O)OCC(=O)c2cc(C)n(C)c2C)cn1`: the cell number change was -9.47%. Under setting [2], the AC50 was 4.11 µM [rising, partial curve, poor fit]. Also, the AC50 under setting [1] was 6.51 µM [rising, partial curve, poor fit].
For `Cc1ccc(-n2nc3ccc(NC(=O)c4ccc5c(c4)OCO5)cc3n2)cc1`, the cell number change came out at 21.3%.
Same read-out and setting: under `C1=C(C(c2nnnn2C2CCCCC2)N2CCCCC2)COc2ccccc21` (stereo unspecified) stands -1.18%.
As for `Cc1nc(C(=O)NNC(=O)Nc2ccccc2)cs1`, the cell number change was 22.1%. The half-maximal activity concentration (AC50) under setting [1] is 29.1 µM [rising, single point].
For the molecule `Cc1ccc(C)c(S(=O)(=O)N2CCN(C(=O)c3ccccc3Cc3ccccc3)CC2)c1`, the cell number change came to 33.7%. Further, the AC50 under setting [2] is 29.1 µM [rising, single point].
Consider `CC(=O)NC(=S)NNC(=O)CCc1ccccc1`, for which the cell number change was -42.8%. Moreover, the AC50 under setting [2] is 6.51 µM [falling, single point].
Take `CN1CCN(C(=O)c2ccc(COc3ccc(C(C)(C)C)cc3)o2)CC1`: the cell number change was -3.11%. Besides, under setting [1], the half-maximal activity concentration (AC50) was 6.51 µM [rising, single point].
Take `Cc1cc(=O)[nH]c(-c2cccs2)n1`: the cell number change worked out at 20.7%. In addition, under setting [2], the AC50 is 0.0259 µM [rising, full curve, poor fit]. In addition, under setting [1], the AC50 is 0.0058 µM [rising, full curve, poor fit].
Regarding `COc1ccc(Cc2nnc(SCC(=O)c3ccc4c(c3)NC(=O)CO4)o2)cc1`, the cell number change worked out at 18.1%.
Regarding `Cc1cc(C)cc(NC(=O)C2CCCN(S(=O)(=O)c3c(C)noc3C)C2)c1` (stereo unspecified), the cell number change was -16.2%. The concentration at half-maximal activity (AC50) under setting [1] was 23.1 µM [falling, single point].
In the case of `CC(NC(=O)[C@H](NC(=O)[C@@H]1Cc2ccccc2CN1)c1ccccc1)c1ccccc1` (stereo partly specified), the half-maximal activity concentration (AC50) under setting [1] is 20.6 µM [rising, single point].
In the case of `O=C(N=Nc1c(O)[nH]c2ccccc12)c1cccc(S(=O)(=O)N2CCCCC2)c1`, the cell number change was found to be 76.6%. The AC50 under setting [2] is 0.58 µM [rising, full curve, poor fit]. In addition, under setting [1], the AC50 was 10.3 µM [rising, partial curve, poor fit].
As to `CCOc1ccc(-c2ccc(NS(=O)(=O)c3cc([N+](=O)[O-])c(C)c([N+](=O)[O-])c3)cc2)nn1`, under setting [1], the AC50 was 6.51 µM [falling, single point].
Turning to `O=C(Nc1nc2ccccc2n1CCN1CCOCC1)c1cn(-c2ccccc2)nc1-c1ccccc1`, the cell number change was -15.5%. The concentration at half-maximal activity (AC50) under setting [1] is 1.03 µM [rising, full curve, poor fit].
On to `CCN(CC(=O)NCCCN1CCOCC1)S(=O)(=O)c1ccc(Cl)cc1`, for which the concentration at half-maximal activity (AC50) under setting [1] is 29.1 µM [rising, single point].
Consider `Cc1ccc(S(=O)(=O)Nc2cc(-c3ccccc3)nn2C)cc1`, for which the cell number change is -3.91%. The half-maximal activity concentration (AC50) under setting [1] was 0.259 µM [falling, full curve, poor fit].
As to `Cn1nnc(NC(=O)C(c2ccccc2)c2ccccc2)n1`, the cell number change amounted to 6.45%. In addition, the AC50 under setting [1] was 0.0291 µM [rising, full curve, poor fit].
As for `Cc1cccc(N2CCN(c3nc4ccc(Cl)cc4n4cnnc34)CC2)c1C`, the cell number change was -45.1%. Moreover, the half-maximal activity concentration (AC50) under setting [2] was 20.6 µM [falling, single point]. The AC50 under setting [1] is 29.1 µM [falling, single point].
As to `CC(CC(=O)N1CCN(S(=O)(=O)c2ccccc2)CC1)n1cncn1` (stereo unspecified), the cell number change was determined as 17.4%. In addition, under setting [1], the AC50 is 29.1 µM [rising, partial curve, poor fit].
